Consider 20 compounds from the supplement of paper PMC4635364.

The subject of experiment [1] is ReNCell VM. The experiment can be described thus: neuronal differentiation score (DCX+ cell fraction vs untreated, manual image score) (score (-3 to 3)); higher = more neuronal differentiation. The note with it: 2 uM, 2 weeks.
The test system of experiment [2] is ReNCell VM. The experiment is described as follows: dopaminergic neuron differentiation score (TH+ cell fraction vs untreated, manual image score) (score (0 to 3)); higher = more TH+ dopaminergic neuron differentiation. The note with it: 2 uM, 4 weeks, BDNF 10 ng/ml + GDNF 10 ng/ml.

Where a name gives a salt, the structure may show the parent alone. The list shows a part of the results. This data set is noisy: repeats of one test often differ as much as different tests do.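 Cells: ReNCell VM human fetal ventral-midbrain neural progenitors, differentiated mitogen-free. Blinded raters compared doublecortin-stained (early neurons) or tyrosine hydroxylase-stained (dopaminergic neurons) images with untreated wells, where 0 means no change. After repeats and both raters were averaged, compounds scoring 2 or above became hits for retesting.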

For `CN1C(C(=O)Nc2ccccn2)=C(O)c2ccccc2S1(=O)=O` [Piroxicam], the figures for the neuronal differentiation score in the experiment on ReNCell VM [1] (library: LOPAC), in the experiment with ReNCell VM [1] (library: Prestwick) and in the experiment on ReNCell VM [1] (library: Tocriscreen) were inactive: 0, inactive: 0 and inactive: 1, respectively. Also, the “dopaminergic neuron differentiation score” value in the experiment on ReNCell VM [2] (library: LOPAC), in the experiment on ReNCell VM [2] (library: Prestwick) and in the experiment with ReNCell VM [2] (library: Tocriscreen) was inactive: 0 in each case.

On to `COc1ccc(/C=C/C(=O)Nc2ccccc2C(=O)O)cc1OC` [Tranilast], for which the neuronal differentiation score in the experiment with ReNCell VM [1] (library: LOPAC), in the experiment on ReNCell VM [1] (library: Prestwick) and in the experiment on ReNCell VM [1] (library: Tocriscreen) was inactive: 0 each time. In addition, the “dopaminergic neuron differentiation score” value in the experiment with ReNCell VM [2] (library: LOPAC), in the experiment with ReNCell VM [2] (library: Prestwick) and in the experiment with ReNCell VM [2] (library: Tocriscreen) was inactive: 0 throughout.

With `COCCOC(=O)C1=C(C)NC(C)=C(C(=O)OC/C=C/c2ccccc2)C1c1cccc([N+](=O)[O-])c1` (stereo not drawn) [Cilnidipine], the neuronal differentiation score with ReNCell VM [1] (library: LOPAC), in the experiment with ReNCell VM [1] (library: Prestwick) and with ReNCell VM [1] (library: Tocriscreen) was inactive: 0 in each case. In addition, the “dopaminergic neuron differentiation score” value in the experiment on ReNCell VM [2] (library: LOPAC), in the experiment on ReNCell VM [2] (library: Prestwick) and in the experiment with ReNCell VM [2] (library: Tocriscreen) was inactive: 0 in each case.

Turning to `O=c1c(-c2ccc(O)cc2)coc2cc(O)cc(O)c12` [Genistein], the neuronal differentiation score in the experiment on ReNCell VM [1] (library: LOPAC) was inactive: 0; in the experiment with ReNCell VM [1] (library: Phytochemical), inactive: 0; with ReNCell VM [1] (library: Tocriscreen) it was inactive: -1. Also, the “dopaminergic neuron differentiation score” value in the experiment on ReNCell VM [2] (library: LOPAC), with ReNCell VM [2] (library: Phytochemical) and in the experiment with ReNCell VM [2] (library: Tocriscreen) was inactive: 0 in each case.

Turning to `Clc1cccc(Cl)c1NC1=NCCN1` [Clonidine hydrochloride], the neuronal differentiation score in the experiment on ReNCell VM [1] (library: LOPAC), in the experiment on ReNCell VM [1] (library: Prestwick) and in the experiment on ReNCell VM [1] (library: Tocriscreen) was inactive: 0 each time. In addition, the “dopaminergic neuron differentiation score” value in the experiment with ReNCell VM [2] (library: LOPAC), with ReNCell VM [2] (library: Prestwick) and in the experiment on ReNCell VM [2] (library: Tocriscreen) was inactive: 0 throughout.

As for `CNCCC=C1c2ccccc2CCc2ccccc21` [Nortriptyline hydrochloride], the neuronal differentiation score in the experiment with ReNCell VM [1] (library: LOPAC) and in the experiment on ReNCell VM [1] (library: Prestwick) was inactive: 0 throughout. Also, the “dopaminergic neuron differentiation score” value in the experiment on ReNCell VM [2] (library: LOPAC) and in the experiment with ReNCell VM [2] (library: Prestwick) was inactive: 0 in each case.

For `CC#C[C@]1(O)CC[C@H]2[C@@H]3CCC4=CC(=O)CCC4=C3[C@@H](c3ccc(N(C)C)cc3)C[C@@]21C` [Mifepristone], the neuronal differentiation score in the experiment on ReNCell VM [1] (library: LOPAC), in the experiment on ReNCell VM [1] (library: Prestwick) and in the experiment on ReNCell VM [1] (library: Tocriscreen) was inactive: 0 in each case. In addition, the “dopaminergic neuron differentiation score” value in the experiment on ReNCell VM [2] (library: LOPAC), with ReNCell VM [2] (library: Prestwick) and in the experiment with ReNCell VM [2] (library: Tocriscreen) was inactive: 0 each time.

`CCCOc1ccccc1-c1nc2[nH]nnc2c(=O)[nH]1` [Zaprinast]: the neuronal differentiation score in the experiment with ReNCell VM [1] (library: LOPAC), in the experiment with ReNCell VM [1] (library: Prestwick) and in the experiment with ReNCell VM [1] (library: Tocriscreen) was inactive: 0 each time. Further, the “dopaminergic neuron differentiation score” value in the experiment with ReNCell VM [2] (library: LOPAC) is active: 3; with ReNCell VM [2] (library: Prestwick) it was inactive: 0; in the experiment on ReNCell VM [2] (library: Tocriscreen) it was inactive: 0.

Turning to `CC(C)NCC(O)COc1ccc(CCOCC2CC2)cc1` (stereo not drawn) [Betaxolol hydrochloride], the neuronal differentiation score in the experiment with ReNCell VM [1] (library: LOPAC), with ReNCell VM [1] (library: Prestwick) and in the experiment with ReNCell VM [1] (library: Tocriscreen) was inactive: 0 throughout. Further, the “dopaminergic neuron differentiation score” value in the experiment with ReNCell VM [2] (library: LOPAC), with ReNCell VM [2] (library: Prestwick) and in the experiment with ReNCell VM [2] (library: Tocriscreen) was inactive: 0 each time.

With `CCN(CC)CCOCCOC(=O)C1(c2ccccc2)CCCC1` [Carbetapentane citrate], the neuronal differentiation score with ReNCell VM [1] (library: LOPAC), with ReNCell VM [1] (library: Prestwick) and in the experiment on ReNCell VM [1] (library: Tocriscreen) was inactive: 0 throughout. The “dopaminergic neuron differentiation score” value in the experiment on ReNCell VM [2] (library: LOPAC), with ReNCell VM [2] (library: Prestwick) and in the experiment with ReNCell VM [2] (library: Tocriscreen) was inactive: 0 throughout.

In the case of `N=C(N)N/N=C/c1c(Cl)cccc1Cl` [Guanabenz acetate], the neuronal differentiation score with ReNCell VM [1] (library: LOPAC), with ReNCell VM [1] (library: Prestwick) and in the experiment with ReNCell VM [1] (library: Tocriscreen) was inactive: 0 each time. The “dopaminergic neuron differentiation score” value in the experiment with ReNCell VM [2] (library: LOPAC), with ReNCell VM [2] (library: Prestwick) and in the experiment with ReNCell VM [2] (library: Tocriscreen) was inactive: 0 in each case.

For `CN1CCC[C@@H]1CCO[C@](C)(c1ccccc1)c1ccc(Cl)cc1` [Clemastine fumarate], the neuronal differentiation score was inactive: -1 in the experiment on ReNCell VM [1] (library: LOPAC), inactive: 0 in the experiment on ReNCell VM [1] (library: Prestwick) and inactive: 0 with ReNCell VM [1] (library: Tocriscreen). Moreover, the “dopaminergic neuron differentiation score” value with ReNCell VM [2] (library: LOPAC), in the experiment with ReNCell VM [2] (library: Prestwick) and in the experiment on ReNCell VM [2] (library: Tocriscreen) was inactive: 0 in each case.

As to `CNC(=C[N+](=O)[O-])NCCSCc1ccc(CN(C)C)o1` [Ranitidine hydrochloride], the neuronal differentiation score in the experiment with ReNCell VM [1] (library: LOPAC), with ReNCell VM [1] (library: Prestwick) and with ReNCell VM [1] (library: Tocriscreen) was inactive: 0 throughout. The “dopaminergic neuron differentiation score” value with ReNCell VM [2] (library: LOPAC), in the experiment with ReNCell VM [2] (library: Prestwick) and with ReNCell VM [2] (library: Tocriscreen) was inactive: 0 throughout.

Take `CCOC(=O)C1=C(C)NC(C)=C(C(=O)OC)C1c1cccc([N+](=O)[O-])c1` (stereo not drawn) [Nitrendipine]: the neuronal differentiation score with ReNCell VM [1] (library: LOPAC), with ReNCell VM [1] (library: Prestwick) and with ReNCell VM [1] (library: Tocriscreen) was inactive: 0 throughout. The “dopaminergic neuron differentiation score” value in the experiment with ReNCell VM [2] (library: LOPAC), in the experiment with ReNCell VM [2] (library: Prestwick) and in the experiment with ReNCell VM [2] (library: Tocriscreen) was inactive: 0 throughout.

For `Cn1cnc2c1c(=O)[nH]c(=O)n2C` [Theobromine], the neuronal differentiation score in the experiment with ReNCell VM [1] (library: LOPAC), in the experiment on ReNCell VM [1] (library: Phytochemical) and in the experiment with ReNCell VM [1] (library: Prestwick) was inactive: 0 in each case. Further, the “dopaminergic neuron differentiation score” value in the experiment with ReNCell VM [2] (library: LOPAC), with ReNCell VM [2] (library: Phytochemical) and in the experiment with ReNCell VM [2] (library: Prestwick) was inactive: 0 each time.

Turning to `CC1=C(CC(=O)O)c2cc(F)ccc2/C1=C\c1ccc([S+](C)[O-])cc1` (stereo not drawn) [Sulindac], the figures for the neuronal differentiation score in the experiment on ReNCell VM [1] (library: LOPAC), in the experiment with ReNCell VM [1] (library: Prestwick) and with ReNCell VM [1] (library: Tocriscreen) were inactive: 1, inactive: 0 and inactive: 0, respectively. In addition, the “dopaminergic neuron differentiation score” value in the experiment on ReNCell VM [2] (library: LOPAC) is inactive: 0; in the experiment with ReNCell VM [2] (library: Prestwick) it was inactive: 0; in the experiment on ReNCell VM [2] (library: Tocriscreen), active: 3.

Take `Cc1scc2c1N(C(=O)CN1CCN(C)CC1)c1ccccc1NC2=O` [Telenzepine dihydrochloride]: the neuronal differentiation score with ReNCell VM [1] (library: LOPAC), in the experiment on ReNCell VM [1] (library: Prestwick) and in the experiment with ReNCell VM [1] (library: Tocriscreen) was inactive: 0 throughout. The “dopaminergic neuron differentiation score” value in the experiment with ReNCell VM [2] (library: LOPAC), with ReNCell VM [2] (library: Prestwick) and in the experiment with ReNCell VM [2] (library: Tocriscreen) was inactive: 0 each time.

In the case of `Cc1c(OCC(F)(F)F)ccnc1C[S+]([O-])c1nc2ccccc2[nH]1` (stereo not drawn) [Lansoprazole], the neuronal differentiation score in the experiment on ReNCell VM [1] (library: LOPAC), with ReNCell VM [1] (library: Prestwick) and with ReNCell VM [1] (library: Tocriscreen) was inactive: 0 throughout. In addition, the “dopaminergic neuron differentiation score” value in the experiment on ReNCell VM [2] (library: LOPAC), in the experiment on ReNCell VM [2] (library: Prestwick) and with ReNCell VM [2] (library: Tocriscreen) was inactive: 0 in each case.

For `COc1cc2nc(N3CCN(C(=O)c4ccco4)CC3)nc(N)c2cc1OC` [Prazosin hydrochloride], the neuronal differentiation score with ReNCell VM [1] (library: LOPAC), with ReNCell VM [1] (library: Prestwick) and in the experiment with ReNCell VM [1] (library: Tocriscreen) was inactive: 0 in each case. The “dopaminergic neuron differentiation score” value in the experiment on ReNCell VM [2] (library: LOPAC), with ReNCell VM [2] (library: Prestwick) and with ReNCell VM [2] (library: Tocriscreen) was inactive: 0 in each case.

In the case of `O=C(c1ccc(OCCN2CCCCC2)cc1)c1c(-c2ccc(O)cc2)sc2cc(O)ccc12` [Raloxifene hydrochloride], the neuronal differentiation score was active: 2 in the experiment with ReNCell VM [1] (library: LOPAC), inactive: 0 with ReNCell VM [1] (library: Prestwick) and inactive: 0 in the experiment with ReNCell VM [1] (library: Tocriscreen). The “dopaminergic neuron differentiation score” value in the experiment with ReNCell VM [2] (library: LOPAC), in the experiment with ReNCell VM [2] (library: Prestwick) and with ReNCell VM [2] (library: Tocriscreen) was inactive: 0 each time.
